Source: PMC5540616

By UniProt entry, the sequences of proteins in these tests, tags left out. Where a name states a change or a piece, a line headed by the entry shows the natural chain unless it says otherwise.
UniProt P11166: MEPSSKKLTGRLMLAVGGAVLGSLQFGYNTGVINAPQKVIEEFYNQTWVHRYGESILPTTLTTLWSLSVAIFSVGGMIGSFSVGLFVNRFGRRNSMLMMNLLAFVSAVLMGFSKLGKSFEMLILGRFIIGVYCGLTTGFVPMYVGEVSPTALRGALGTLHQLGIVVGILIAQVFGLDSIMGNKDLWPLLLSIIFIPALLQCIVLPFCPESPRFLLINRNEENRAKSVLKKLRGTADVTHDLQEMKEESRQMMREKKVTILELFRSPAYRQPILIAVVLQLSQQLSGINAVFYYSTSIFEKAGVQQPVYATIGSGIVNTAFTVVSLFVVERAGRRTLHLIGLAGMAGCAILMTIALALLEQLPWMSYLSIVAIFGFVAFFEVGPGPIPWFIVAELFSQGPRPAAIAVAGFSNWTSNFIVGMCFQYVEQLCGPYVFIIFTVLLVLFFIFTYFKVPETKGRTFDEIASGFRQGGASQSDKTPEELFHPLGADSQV
UniProt P03230: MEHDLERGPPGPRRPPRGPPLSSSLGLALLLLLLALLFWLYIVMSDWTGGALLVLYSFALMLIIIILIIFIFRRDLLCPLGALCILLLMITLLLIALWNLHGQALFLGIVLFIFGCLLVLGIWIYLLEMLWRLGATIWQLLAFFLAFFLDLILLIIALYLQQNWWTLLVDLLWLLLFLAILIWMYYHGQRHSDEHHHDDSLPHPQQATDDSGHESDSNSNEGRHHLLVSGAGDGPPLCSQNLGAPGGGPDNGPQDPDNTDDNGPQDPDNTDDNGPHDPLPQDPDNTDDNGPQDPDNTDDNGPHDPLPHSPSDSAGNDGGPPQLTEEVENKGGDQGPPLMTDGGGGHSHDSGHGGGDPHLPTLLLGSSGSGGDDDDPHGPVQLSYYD

Biological target: glucose transporter 1 (GLUT1), endogenous (human (endogenous in CNE2 and TW03)) (UniProt P11166)
Assay: co-IP; CNE2 cells expressing Flag-tagged full-length LMP1, LMP1 1–230 or LMP1 1–322; LMP1 forms pulled down by GLUT1, immunoblot

With “Flag-tagged truncated LMP1 1-230 (from UniProt P03230) (domain or fragment)” the binding was “no binding”.
For “Flag-tagged truncated LMP1 1-322 (from UniProt P03230) (domain or fragment)”, the binding was “binds”.

No constants are given. Whether binding was seen depends on the method and setting. Binding seen in cells or lysates may run through a third protein. Binding calls can cover weak binding; strength is not graded here.
